Measured values published in patent US20100196275A1, “Methods and products for neutralizing the harmful effects of combustion products” (priority 2006, published 2010).

Test system: p53 exon 5 and exon 7 DNA fragments
Test: UvrABC incision of Acr-modified p53 DNA fragments with and without CpG methylation
Design: species or system human
Settings: p53 exon 5 and 7 fragments, SssI methylated

C=CC=O [Acr, Acrolein]
enhancement of UvrABC incision band intensity of Acr-DNA adducts at CpG-containing codons, methylated versus unmethylated: 2- to 4 fold

Some results come without the dose or concentration used.
